Assay results reported in the supplement of paper PMC12889115.
This is one part of the list. These are raw signals, not scaled to a control.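 First-pass screen: polymyxin B was added at a level that permeabilizes the Salmonella outer membrane while sparing the inner membrane. DMSO wells, with and without polymyxin B, defined maximum growth. Because plates differed from one another, each plate's data were ranked separately and the compounds with the lowest OD600 were carried forward as hits.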

System: Salmonella enterica serovar Typhimurium SL1344
Test: bacterial growth OD600 after 18 h with compound and polymyxin B; higher = more bacterial growth (less inhibition)
Details: 50 µM, Mueller-Hinton broth

SMILES	bacterial growth OD600 (polymyxin B 1 µg/mL)	bacterial growth OD600 (polymyxin B 0.75 µg/mL)
COc1cccc(-c2ccccc2NC(=O)C2CCN(Cc3ccc(F)cc3)CC2)c1	0.028	–
Cc1ccn(CCC(=O)N2CCc3c(cnc(C)c3CNC(=O)/C=C/c3cccs3)C2)n1	–	0.846
O=C1CCC(CCC(=O)N2CCCC2c2ccc(F)cc2)(Cc2ccc(Cl)cc2)N1 (stereo not given)	–	0.948
O=C(c1coc(CN2CCN(c3ncccn3)CC2)n1)N1CCCCCCC1	1.07	–
CCn1ccnc1CN1CCCC(CCc2ccccc2F)C1 (stereo not given)	–	0.84
CC(=O)CCC(=O)N1CCCC(N2CCN(c3cccc(Cl)c3)CC2)C1 (stereo not given)	0.825	–
CC(C)CNCC1(O)CCCN(Cc2ccc(F)c(F)c2)C1=O (stereo not given)	0.98	–
C[C@@H]1CN(C2(C(=O)N3CC[C@H](O)C3)Cc3ccccc3C2)C[C@H](C)O1	–	0.756
Cc1cccc(C)c1C(=O)NC1CCCN(C2CCCCCC2)C1 (stereo not given)	1.27	–
CN1CCCCC1CCNC(=O)c1ccc(NCc2ccccc2)nc1 (stereo not given)	0.922	–
COc1ccc(CN2CCC(C(=O)Nc3cccc(-c4cscn4)c3)CC2)c(F)c1	–	0.409
CC(C)CS(=O)(=O)c1ncc(CN(C)C2CCCCC2)n1Cc1ccccc1	-0.001	–
CN(Cc1cn(Cc2ccccc2)nc1-c1cc2ccccc2o1)C1CCOCC1	0.99	–
COc1ccc(CC2(CCC(=O)NCCc3cccc4ccccc34)CCC(=O)N2)c(F)c1 (stereo not given)	–	0.805
CCNC(=O)N1C[C@H]2OC(=O)N(CCc3ccc(F)cc3)[C@H]2C1	0.954	–
COc1ccc(CC2(CCC(=O)NC(CCn3ccnc3)c3ccccc3)CCC(=O)N2)c(F)c1 (stereo not given)	–	0.831
Cc1cccc(-c2cnc(C)nc2C2CCCN(C(=O)C(c3cccnc3)N3CCOCC3)C2)c1 (stereo not given)	–	0.824
O=C(CCC1CCN(C(=O)C2=CCCCC2)CC1)Nc1ccccc1	0.844	–
O=C(CC1=CCCCC1)N1CCCC(N2CCN(Cc3ccc4c(c3)OCO4)CC2)C1 (stereo not given)	0.93	–
COCCO[C@H]1[C@H](NC(=O)C(C)C)c2ccccc2C12CCN(C(=O)c1cccc(C)c1C)CC2	–	0.965
COc1ccc(-c2nc(CN(C)C(C)c3nc(C)cs3)c(C)o2)cc1C (stereo not given)	–	0.649
CCOC(=O)C1CCN(C(=O)CC(c2ccccc2)c2ccc(OC)cc2)CC1 (stereo not given)	0.669	–
COCCN1C(=O)CC(CC(=O)N(C)Cc2ccc(OC)c(OC)c2)(c2ccccc2F)C1=O (stereo not given)	–	0.809
Cn1ccnc1CNC(=O)c1cc(COc2ccc3c(c2)OCO3)[nH]n1	1.14	–
CC1CCCN(C(=O)c2coc(COc3cccc4cnccc34)n2)C1 (stereo not given)	0.902	–
O=C(c1cn(CC2COc3ccccc3O2)nn1)N1CCCC1 (stereo not given)	0.879	–
O=C(NCCN1CCOCC1)c1ccc(N2CCC(N3CCOc4ccc(Cl)cc4C3)CC2)cc1	–	0.794
COCC(=O)N1CCC(Oc2ccccc2C(=O)NCCC2=CCCCC2)CC1	0.01	–
CC(=O)NCC(=O)NCC1Cc2cc(-c3ccc(C(C)=O)s3)cc(Cl)c2O1 (stereo not given)	–	0.882
O=C(Cn1cnc2ccccc21)N1CCCC(Nc2ccc3c(c2)OCCO3)C1 (stereo not given)	0.959	–

Gathered by group: the entries above containing a Cl atom.
SMILES	bacterial growth OD600 (polymyxin B 1 µg/mL)	bacterial growth OD600 (polymyxin B 0.75 µg/mL)
O=C1CCC(CCC(=O)N2CCCC2c2ccc(F)cc2)(Cc2ccc(Cl)cc2)N1 (stereo not given)	–	0.948
CC(=O)CCC(=O)N1CCCC(N2CCN(c3cccc(Cl)c3)CC2)C1 (stereo not given)	0.825	–
O=C(NCCN1CCOCC1)c1ccc(N2CCC(N3CCOc4ccc(Cl)cc4C3)CC2)cc1	–	0.794
CC(=O)NCC(=O)NCC1Cc2cc(-c3ccc(C(C)=O)s3)cc(Cl)c2O1 (stereo not given)	–	0.882
